# These are yes or no findings as the source states them, for the method shown. In cells and extracts the contact can be indirect. Here binding means that the protein was enriched with, or labelled near, the bait; the list need not be complete.
# Molecular target: β2-adrenergic receptor (UniProt P07550)
# Experiment: affinity purification with mass spectrometry; purified Flag-β2AR in rHDL immobilised on M1 anti-Flag resin, occupied by 50 µM BI-167107 (full agonist) or 50 µM carazolol (inverse agonist); adult rat heart cytosol (10 mg/ml, 4 mM CaCl2) overnight at 4°C; eluted with FLAG peptide and EDTA; gel slices, LC-MS; proteins of the M1 resin, empty rHDL and Ni-NTA controls subtracted; hits of either or both samples; only the target purified
row,Binder,binding
1,"BASP1 (protein, UniProt Q05175 1-220) MGSKLSKKKKGYNVNDEKAKDKDKKAEGAGTEEEGTQKESEPQAAADATEVKESAEEKPKDAADGEAKAEEKEADKAAAKEEAPKAEPEKSEGAAEEQPEPAPAPEQEAAAPGPAAGGEAPKAGEASAESTGAADGAPQEEGEAKKTEAPAAGPEAKSDAAPAASDSKPSTEPAPSSKETPAASEAPSSAAKAPAPAAPAAEPQAEAPVASSEQSVAVKE",binds
2,"CAPNS1 (protein, UniProt Q64537 1-270) MFLVNSFLKGGGGGGGGGGLGGGLGNVLGGLISGAAGGGGGGGGGGGMGLGGGGGGGGTAMRILGGVISAISEAAAQYNPEPPPPRSHYSNIEANESEEERQFRKLFVQLAGDDMEVSATELMNILNKVVTRHPDLKTDGFGIDTCRSMVAVMDSDTTGKLGFEEFKYLWNNIKKWQGIYKRFDTDRSGTIGSNELPGAFEAAGFHLNQHIYSMIIRRYSDETGNMDFDNFISCLVRLDAMFRAFRSLDKNGTGQIQVNIQEWLQLTMYS",binds
3,"ALOX15 (protein, UniProt Q02759 1-663) MGVYRIRVSTGDSKYAGSNNEVYLWLVGQHGEASLGKLLRPCRDSEAEFKVDVSEYLGPLLFVRVQKWHYLTDDAWFCNWISVKGPGDQGSEYMFPCYRWVQGRSILSLPEGTGCTVVEDSQGLFRKHREEELEERRSLYRWGNWKDGSILNVAAASISDLPVDQRFREDKRIEFEASQVIGVMDTVVNFPINTVTCWKSLDDFNCVFKSGHTKMAERVRNSWKEDAFFGYQFLNGANPMVLKRSTCLPARLVFPPGMEKLQAQLNKELQKGTLFEADFFLLDGIKANVILCSQQYLAAPLVMLKLMPDGQLLPIAIQLELPKTGSTPPPIFTPSDPPMDWLLAKCWVRSSDLQLHELQAHLLRGHLMAEVFAVATMRCLPSVHPVFKLLVPHLLYTMEINVRARSDLISERGFFDKAMSTGGGGHLDLLKQAGAFLTYCSLCPPDDLAERGLLDIETCFYAKDALRLWQIMNRYVVGMFNLHYKTDKAVQDDYELQSWCREITDIGLQGAQDRGFPTSLQSRAQACYFITMCIFTCTAQHSSVHLGQLDWFYWVPNAPCTMRLPPPTTKEATMEKLMATLPNPNQSTLQINVVWLLGRRQAVMVPLGQHSEEHFPNPEAKAVLKKFREELAALDKEIEIRNKSLDIPYEYLRPSMVENSVAI",binds
4,"ARL8B (protein, UniProt Q66HA6 1-186) MLALISRLLDWFRSLFWKEEMELTLVGLQYSGKTTFVNVIASGQFSEDMIPTVGFNMRKVTKGNVTIKIWDIGGQPRFRSMWERYCRGVNAIVYMIDAADREKIEASRNELHNLLDKPQLQGIPVLVLGNKRDLPNALDEKQLIEKMNLSAIQDREICCYSISCKEKDNIDITLQWLIQHSKSRRS",binds
5,"ARL1 (protein, UniProt P61212 1-181) MGGFFSSIFSSLFGTREMRILILGLDGAGKTTILYRLQVGEVVTTIPTIGFNVETVTYKNLKFQVWDLGGQTSIRPYWRCYYSNTDAVIYVVDSCDRDRIGISKSELVAMLEEEELRKAILVVFANKQDMEQAMTPSEMANALGLPALKDRKWQIFKTSATKGTGLDEAMEWLVETLKSRQ",binds

# More lines, now with the values ahead:
row,binding,Binder
1,binds,"EHD2 (protein, UniProt Q4V8H8 1-543) MFSWLKKGGARGQRSEAIRTVTSSLKELYRTKLLPLEEHYRFGSFHSPALEDADFDGKPMVLVAGQYSTGKTSFIQYLLEQEVPGSRVGPEPTTDCFVAVMHGETEGTVPGNALVVDPEKPFRKLNPFGNTFLNRFMCAQLPNQVLESISIIDTPGILSGAKQRVSRGYDFPAVLRWFAERVDLIILLFDAHKLEISDEFSEAIGALRGHEDKIRVVLNKADMVETQQLMRVYGALMWALGKVVGTPEVLRVYIGSFWSQPLLVPDNRRLFELEEQDLFRDIQGLPRHAALRKLNDLVKRARLVRVHAYIISYLKKEMPSVFGKENKKKQLIFKLPVIFAKIQLEHHISPGDFPDCQKMQELLMAHDFTKFHSLKPKLLEALDEMLTHDIAKLMPLLRQEELESVEAGVQGGAFEGTRMGPFVERGPDEAIEDGEEGSEDDAEWVVTKDKSKYDEIFYNLAPADGKLSGSKAKTWMVGTKLPNSVLGRIWKLSDVDRDGMLDDEEFALASHLIEAKLEGHGLPTNLPRRLVPPSKRRQKGSAE"
2,binds,"EHD4 (protein, UniProt Q8R3Z7 1-549) MRKDLRSLLNNERAPVTQRLMIGRCGRGRARERAVARASPAPRVLPLEEAYRFHEFHSPALEDADFENKPMILLVGQYSTGKTTFIRYLLEQDFPGMRIGPEPTTDSFIAVMYGETEGSTPGNALVVDPKKPFRKLSRFGNAFLNRFMCSQLPNQVLKSISIIDSPGILSGEKQRISRGYDFCQVLQWFAERVDRIILLFDAHKLDISDEFSEAIKAFRGQDDKIRVVLNKADQVDTQQLMRVYGALMWSLGKVINTPEVLRVYIGSFWAQPLQNTDNRRLFEAEAQDLFRDIQSLPQKAAVRKLNDLIKRARLAKVHAYIISYLKKEMPSMFGKENKKRELIFRLPEIYVQLQREYQISAGDFPEVKAMQEQLENYDFTKFHSLKPKLIEAVDNMLTNKISSLMSLISQEEMNMPTQMVQGGAFDGTTEGPFNQGYGEGAKEGADEEEWVVAKDKPVYDELFYTLSPINGKISGVNAKKEMVTSKLPNSVLGKIWKLADCDCDGMLDEEEFALAKHLIKIKLDGYELPNSLPPHLVPPSHRKSLPKAD"
3,binds,"SORBS2 (protein, UniProt O35413 1-1196) MNTDSGGCARKRAAMSVTLTSVKRVQSSPNLLAAGRESHSPDSAWRSYNGRNPETLNGDATYSSLAAKGFRSVRPNLQDKKSPTQSHITINGNSGGAVSPVSYYQRPFSPSAYSLPASLNSSIIMPHGRSLDSAETYSQHAQSLDGTMGSSIPLYRSSEEEKRVTVIKAPHYPGIGPVDESGIPTAIRTTVDRPKDWYKTMFKQIHMVHKPDEDTDMYNTPYTYNAGLYNSPYSAQSHPAAKTQTYRPLSKSHSDNGTDAFKEATSPVPPPHVPPRPRDQSSTEKHDWDPPDRKVDTRKFRSEPRSIFEYEPGKSSILQHERPVSVYQSSIDRSLERPSSSASMAGDFRKRRKSEPAVGPPRGLGDHSSSRTSPGRADLPGSSSTFTTSFISSSPSSPSRAQGGDDSKMCPPLCSYSGLNGSPSSELECCGAYRRHLDVPQDSQRAITFKNGWQMARQNAEIWSSTEEAVSPKIKSRSCDDLLNDDCGSFPDPKTKSESMGSLLCDEGSKESDPMTWTSPYIPEVCGNSRSRLKHRSAHNAPGFLKMYKKMHRINRKDLMNSEVICSVKSRILQYEKEQQHRGLLHGWSQSSTEEVPRDVVPTRISEFEKLIQKSKSMPNLGDEMLSPVTLEPPQNGLCPKRRFSIESLLEEETQVRHPSQGQRSCKSNTLVPIHIEVTSDEQPRTHMEFSDSDQDGVVSDHSDNVHVERSSFCSESDFDHFSFTSSESFYGSSHHHHHHHHHHGHFISSCKGRCPASYTRFTTMLKHERAKHENIDRPRRQDMDPGLSKLAFLVSPVPFRRKKVLTPQKQTEQAKCKASVVEALDSALKDICDQIKAEKRRGSLPDNSILHRLISELLPQIPKRNSSLNALKRSPMHQPFHPLPQDGAIHCPLYQNDCGRMPHSASFPDVDTTSSYHAQDYGSVLSLQDHESPRSYSSTLTDLGRSVSRERRGTPEKEVKLPAKAVYDFKAQTSKELSFKKGDTVYILRKIDQNWYEGEHHGRVGIFPISYVEKLTPPEKAQPARPPPPVQPGEIGEAIAKYNFNADTNVELSLRKGDRIILLKRVDQNWYEGKIPGTNRQGIFPVSYVEVVKRNTKGSEDYPDPPLPHSYSSDRIYSLSSNKPQRPVFSHENIQGGGEPFQALYNYTPRNEDELELRESDVVDVMEKCDDGWFVGTSRRTKFFGTFPGNYVKRL"
4,binds,"SELENBP1 (protein, UniProt Q8VIF7 1-472) MATKCTKCGPGYATPLEAMKGPREEIVYLPCIYRNTGIEAPDYLATVDVDPKSPHYSQVIHRLPMPHLKDELHHSGWNTCSSCFGDSTKSRDKLILPSIISSRIYVVDVGSEPRAPKLHKVIEPNEIHAKCNLGNLHTSHCLASGEVMISSLGDPQGNGKGGFVLLDGETFEVKGTWEKPGGEAPMGYDFWYQPRHNIMVSTEWAAPNVFKDGFNPAHVEAGLYGSHIHVWDWQRHEIIQTLQMKDGLIPLEIRFLHDPDATQGFVGCALSSNIQRFYKNEGGTWSVEKVIQVPSKKVKGWMLPEMPGLITDILLSLDDRFLYFSNWLHGDIRQYDISNPKKPRLTGQIFLGGSIVKGGSVQVLEDQELTCQPEPLVVKGKRVPGGPQMIQLSLDGKRLYVTTSLYSAWDKQFYPNLIREGSVMLQIDVDTANGGLKLNPNFLVDFGKEPLGPALAHELRYPGGDCSSDIWI"
5,binds,"CRIP2 (protein, UniProt P36201 1-208) MASKCPKCDKTVYFAEKVSSLGKDWHKFCLKCERCNKTLTPGGHAEHDGKPFCHKPCYATLFGPKGVNIGGAGSYIYEKPPTEAPQVTGPIEVPVVRTEERKTSGPPKGPSKASSVTTFTGEPNMCPRCNKRVYFAEKVTSLGKDWHRPCLRCERCSKTLTPGGHAEHDGQPYCHKPCYGILFGPKGVNTGAVGSYIYDKDPEGTVQP"
6,binds,"SIRT2 (protein, UniProt Q5RJQ4 1-350) MDFLRNLFTQTLGLGSQKERLLDELTLEGVTRYMQSERCRRVICLVGAGISTSAGIPDFRSPSTGLYANLEKYHLPYPEAIFEISYFKKHPEPFFALAKELYPGQFKPTICHYFIRLLKEKGLLLRCYTQNIDTLERVAGLEPQDLVEAHGTFYTSHCVNTSCGKEYTMSWMKEKIFSEATPKCEKCQNVVKPDIVFFGENLPPRFFSCMQSDFSKVDLLIIMGTSLQVQPFASLISKAPLATPRLLINKEKTGQTDPFLGMMMGLGGGMDFDSKKAYRDVAWLGDCDQGCLALADLLGWKELEDLVRREHANIDAQSGSQASNPSATVSPRKSPPPAKEAARTKEKEEH"
7,binds,"DSTN (protein, UniProt Q7M0E3 1-165) MASGVQVADEVCRIFYDMKVRKCSTPEEIKKRKKAVIFCLSADKKCIVVEEGKEILVGDVGVTITDPFKHFVGMLPEKDCRYALYDASFETKESRKEELMFFLWAPEQAPLKSKMIYASSKDAIKKKFPGIKHEYQANGPEDLNRTSIAEKLGGSLIVAFEGSPV"
8,binds,"RAB12 (protein, UniProt P35284 1-291) MLLPLLRRSCFPSSTPGGGGSGGGAERVEGARGPGARGRRPEREPYACMDPSAALHRRPAGGGLGAVSPALSGGQARRRKQPPRPADFKLQVIIIGSRGVGKTSLMERFTDDTFCEACKSTVGVDFKIKTVELRGKKIRLQIWDTAGQERFNSITSAYYRSAKGIILVYDITKKETFDDLPKWMKMIDKYASEDAELLLVGNKLDCETDREISRQQGEKFAQQITGMRFCEASAKDNFNVDEIFLKLVDDILKKMPLDVLRSELSNSILSLQPEPEIPPELPPPRPHVRCC"

# — paper PMC3556083
